The source of these data is patent US20250179192A1 (PHARMABCINE, published 2025).

Amino acid sequences for entries named in this document (tags omitted). Residues count along the entry.
UniProt P35968, 20-1356 limits assumed: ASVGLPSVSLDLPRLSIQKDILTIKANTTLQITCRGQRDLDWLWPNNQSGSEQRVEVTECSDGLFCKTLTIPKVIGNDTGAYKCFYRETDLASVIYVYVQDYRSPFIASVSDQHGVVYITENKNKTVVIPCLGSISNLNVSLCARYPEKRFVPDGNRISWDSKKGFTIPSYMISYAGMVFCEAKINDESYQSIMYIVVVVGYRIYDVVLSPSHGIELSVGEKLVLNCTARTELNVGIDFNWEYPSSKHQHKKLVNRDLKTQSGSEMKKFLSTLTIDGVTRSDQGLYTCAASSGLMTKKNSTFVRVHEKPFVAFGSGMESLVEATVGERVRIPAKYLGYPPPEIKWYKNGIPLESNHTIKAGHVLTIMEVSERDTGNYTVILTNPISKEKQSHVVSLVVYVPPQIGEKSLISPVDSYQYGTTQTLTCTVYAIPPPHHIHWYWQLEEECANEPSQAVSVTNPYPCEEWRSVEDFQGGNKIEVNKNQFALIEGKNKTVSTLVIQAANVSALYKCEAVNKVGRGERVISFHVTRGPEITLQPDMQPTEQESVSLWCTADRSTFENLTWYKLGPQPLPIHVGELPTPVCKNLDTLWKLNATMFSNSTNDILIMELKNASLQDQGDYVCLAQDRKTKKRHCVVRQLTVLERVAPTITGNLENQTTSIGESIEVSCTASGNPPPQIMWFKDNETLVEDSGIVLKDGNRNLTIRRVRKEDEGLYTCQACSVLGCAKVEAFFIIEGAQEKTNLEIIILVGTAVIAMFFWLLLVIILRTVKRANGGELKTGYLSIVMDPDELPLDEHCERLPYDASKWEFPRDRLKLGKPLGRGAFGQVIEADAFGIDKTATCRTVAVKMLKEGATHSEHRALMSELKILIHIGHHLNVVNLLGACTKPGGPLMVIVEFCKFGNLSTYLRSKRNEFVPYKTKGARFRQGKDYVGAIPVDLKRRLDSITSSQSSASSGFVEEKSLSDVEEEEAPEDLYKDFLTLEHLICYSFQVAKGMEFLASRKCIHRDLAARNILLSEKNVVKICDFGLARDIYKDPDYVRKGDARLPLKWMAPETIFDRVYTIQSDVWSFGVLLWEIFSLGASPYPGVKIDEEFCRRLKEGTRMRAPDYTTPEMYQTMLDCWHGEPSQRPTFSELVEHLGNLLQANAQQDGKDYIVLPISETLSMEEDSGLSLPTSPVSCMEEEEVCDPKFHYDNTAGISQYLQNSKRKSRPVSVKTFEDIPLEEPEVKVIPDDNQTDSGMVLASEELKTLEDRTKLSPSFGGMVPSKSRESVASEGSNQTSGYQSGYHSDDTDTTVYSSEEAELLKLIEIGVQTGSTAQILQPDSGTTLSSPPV
UniProt Q9NR61, 27-685: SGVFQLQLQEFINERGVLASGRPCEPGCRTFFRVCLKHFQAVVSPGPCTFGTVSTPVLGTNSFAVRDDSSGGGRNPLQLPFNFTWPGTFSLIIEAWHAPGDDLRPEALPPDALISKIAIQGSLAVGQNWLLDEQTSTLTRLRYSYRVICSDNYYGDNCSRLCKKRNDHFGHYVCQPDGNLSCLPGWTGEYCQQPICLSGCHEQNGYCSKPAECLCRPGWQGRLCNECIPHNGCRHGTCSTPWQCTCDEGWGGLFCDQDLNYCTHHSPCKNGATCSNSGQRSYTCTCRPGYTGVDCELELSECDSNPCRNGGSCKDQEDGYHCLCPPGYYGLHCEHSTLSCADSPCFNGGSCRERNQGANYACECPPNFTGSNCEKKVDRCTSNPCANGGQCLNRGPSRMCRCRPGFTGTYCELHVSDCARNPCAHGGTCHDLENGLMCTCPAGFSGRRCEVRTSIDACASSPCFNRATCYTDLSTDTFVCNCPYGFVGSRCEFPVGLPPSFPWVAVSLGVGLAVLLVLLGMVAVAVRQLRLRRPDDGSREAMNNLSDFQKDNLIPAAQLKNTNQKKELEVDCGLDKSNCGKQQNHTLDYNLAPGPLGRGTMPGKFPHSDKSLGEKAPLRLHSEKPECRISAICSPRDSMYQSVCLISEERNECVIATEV

Test [1] has as its target T1, VEGFR2 (KDR) on HUVECs (human, UniProt P35968 20-1356).
T1 construct: Endogenous receptor on HUVECs; also called KDR (VEGFR-2)
Nature of the test: FACS on HUVECs, anti-human IgG-PE secondary. The protocol:
(§1) To determine the binding activity of the fusion protein to HUVECs, FACS analysis was performed using the fusion protein and control antibodies (6A6, 6A6×DLL4, D4, Minod-Fc).
(§2) Specifically, HUVECs (LONZA, Cat No. C2519A) were cultured at 37° C. and 5% CO₂ using a plate coated with 2% gelatin and VascuLife medium complete kit (Lifeline Cell Technology, Cat No. #LCT-LL-0005). The cells were prepared at a concentration of 2×10⁷ cells/ml in FACS buffer (0.5% FBS, 0.05% sodium azide in PBS) and dispensed at 50 μl into each of FACS tubes. 100 μl of each antibody at a concentration of 5 nM was mixed in the FACS tube, followed by reaction at 4° C. for 30 minutes. After completion of reaction, 2 ml of FACS buffer was added to each tube, followed by centrifugation at 1500 rpm for 3 minutes. The supernatant was removed, the cells were resuspended, and 100 μl of anti-human IgG-PE antibody (1:200, Bethyl, #A80-248PE) was added, followed by reaction at 4° C. for 20 minutes. 2 ml of FACS buffer was added to each FACS tube, followed by centrifugation at 1500 rpm for 3 minutes. The separated supernatant was removed, the cells were resuspended in 200 μl of FACS buffer, and the binding activity was analyzed using FACS (Beckton Dickinson, Lyric).

Test [2] concerns the target T2, hDLL4 expressed on HEK293 cells (human, UniProt Q9NR61 27-685).
T2 construct: whole, on cells; also called DLL4-overexpressed HEK293 cells
Nature of the test: FACS on hDLL4-overexpressing HEK293 cells (293-DLL4), 5 nM, anti-human IgG-PE secondary; secondary only 82.0. The protocol:
Specifically, the pcDNA-hDLL4 vector synthesized by GeneArt was transfected into HEK293 cells using Lipofectamin™ 2000 (Invitrogen #1168-019, USA), and neomycin (Gibco #10131, 50 mg/ml) was added for selection. Then, all grown cells were collected and cultured in a pool state. Then, 23 types of single colonies were obtained by culture using a limiting dilution method, and among the single colonies, one type of cell line that highly overexpressed hDLL4 was selected and tested. The selected cells were prepared to a concentration of 2×10⁷ cells/ml in FACS buffer (0.5% FBS, 0.05% sodium azide in PBS) and dispensed at 50 μl into each of FACS tubes. 5 nM fusion protein and control antibodies (6A6, 6A6×DLL4, D4, D4×DLL4, Minod-Fc) were added in 100 μl to each of the FACS tubes containing the cells, followed by reaction at 4° C. for 30 minutes. After completion of reaction, 2 ml of FACS buffer was added to each tube, followed by centrifugation at 1500 rpm for 3 minutes. The supernatant was removed, the cells were well resuspended, and then 100 μl of anti-human IgG-PE antibody (1:200, […], #A80-248PE) was added, followed by reaction at 4° C. for 20 minutes. […] The separated supernatant was removed, the cells were resuspended in 200 μl of FACS buffer, and the binding activity was analyzed using FACS (Beckton Dickinson, Lyric).

Test [3] addresses T1, VEGFR2 (KDR) on HUVECs. Nature of the test: FACS on HUVECs, 5 nM, anti-human IgG-PE secondary; secondary only 65.7. On the procedure: as §1, §2

B1: Minod-Fc (Fc fusion, not shown: a dimerising Fc or GST)
chain: DVDECSLGANPCEHAGKCINTLGSFECQCLQGYTGPRCEIDVNECVSNPCQNDATCLDQIGEFQCICMPGYEGVHCE
notes: written here with the Notch1 domain first
Consider B1, for which the binding result in the test with VEGFR2 (KDR) on HUVECs [1] was “no binding (tested: 5 nM)”. Further, the “Geometric Mean : PE-A” value in test [2] worked out at 691; in the test with VEGFR2 (KDR) on HUVECs [3], 83.
